{
  "sequences": {"note": "Sequences of proteins named here, by UniProt entry; tags and fusion partners are left off. A change or cut given only in a name is not applied to a line headed by its entry.", "UniProt Q80TL4": "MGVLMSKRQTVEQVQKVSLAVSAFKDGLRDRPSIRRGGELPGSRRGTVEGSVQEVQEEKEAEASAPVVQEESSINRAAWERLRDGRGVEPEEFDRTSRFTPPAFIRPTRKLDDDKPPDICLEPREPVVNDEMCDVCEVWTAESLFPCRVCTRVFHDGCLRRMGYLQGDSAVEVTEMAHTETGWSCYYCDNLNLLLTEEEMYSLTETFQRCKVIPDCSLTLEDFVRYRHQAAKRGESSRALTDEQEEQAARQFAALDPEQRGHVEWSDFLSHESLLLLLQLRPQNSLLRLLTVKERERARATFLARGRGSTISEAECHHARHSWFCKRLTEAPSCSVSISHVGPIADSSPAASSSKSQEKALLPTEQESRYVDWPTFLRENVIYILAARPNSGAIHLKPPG", "UniProt P04899": "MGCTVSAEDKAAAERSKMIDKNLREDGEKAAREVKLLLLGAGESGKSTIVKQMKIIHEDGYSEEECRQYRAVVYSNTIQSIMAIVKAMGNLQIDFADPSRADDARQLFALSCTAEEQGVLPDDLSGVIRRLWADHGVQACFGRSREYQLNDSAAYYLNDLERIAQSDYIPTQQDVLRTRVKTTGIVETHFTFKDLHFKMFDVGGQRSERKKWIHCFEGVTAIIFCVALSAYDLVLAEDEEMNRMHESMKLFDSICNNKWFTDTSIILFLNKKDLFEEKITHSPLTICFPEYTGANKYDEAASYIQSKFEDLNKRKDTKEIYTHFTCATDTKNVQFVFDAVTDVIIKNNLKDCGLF"},
  "source": "paper PMC12336858",
  "biological_target": "GST-tagged GINIP protein (UniProt Q80TL4)",
  "test": "pull-down; purified GST-bait (2 μg/mL) included in the cell lysis buffer (10 mM Tris-HCl pH 7.5, 150 mM NaCl, 1% Triton X-100, 5 mM DTT, no EDTA); glutathione Sepharose 4B, 10 min at 4 °C; western blot with GluGlu antibody; cells stimulated with GPCR ligands (DREADD ligand) or fluid shear stress, or expressing GTPase-deficient mutants; only the target purified",
  "note": "Results are given in words; binding and its absence hold for the method and conditions named. Binding seen in cells or lysates may run through a third protein. Binding can be weak; no strength is given.",
  "data": [
    {"substance": "GluGlu-epitope inserted human Gi2 Q205L protein (from UniProt P04899)", "values": [
      {"measurement": "binding", "result": "binds"}
    ]}
  ]
}
